Some of the results follow.
compound: Cc1cc(ccc1-c1ccccc1)C(=O)N1CCCN(CC1)C(=O)CCl [compound 10]; test: probe-labelled cysteine peptide fold change vs DMSO (competition) (log2 fold change); higher = less target engagement (more negative = stronger competition); conditions: 10 µM; THP-1; incubation time: 4 h
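Further: competitive profiling in live THP-1 cells: cysteine peptides tagged with an iodoacetamide desthiobiotin (IA-DTB) probe, intensity after compound treatment relative to DMSO-treated cells.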

Sequences of proteins named here, by UniProt entry; tags and fusion partners are left off. A change or cut given only in a name is not applied to a line headed by its entry.
UniProt Q92759: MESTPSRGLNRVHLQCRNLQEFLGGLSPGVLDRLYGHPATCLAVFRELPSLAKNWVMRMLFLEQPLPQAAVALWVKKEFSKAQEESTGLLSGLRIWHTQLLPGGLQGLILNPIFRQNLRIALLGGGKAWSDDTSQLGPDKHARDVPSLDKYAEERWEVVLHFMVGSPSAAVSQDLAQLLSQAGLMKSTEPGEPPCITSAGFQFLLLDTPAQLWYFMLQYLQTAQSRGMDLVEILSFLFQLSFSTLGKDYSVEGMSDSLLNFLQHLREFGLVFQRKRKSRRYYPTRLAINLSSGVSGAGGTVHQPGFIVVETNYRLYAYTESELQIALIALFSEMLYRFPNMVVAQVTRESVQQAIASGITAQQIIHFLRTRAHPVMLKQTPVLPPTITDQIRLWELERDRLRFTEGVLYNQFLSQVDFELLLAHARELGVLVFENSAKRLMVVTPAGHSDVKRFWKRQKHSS
UniProt P43250, whole entry, looked up: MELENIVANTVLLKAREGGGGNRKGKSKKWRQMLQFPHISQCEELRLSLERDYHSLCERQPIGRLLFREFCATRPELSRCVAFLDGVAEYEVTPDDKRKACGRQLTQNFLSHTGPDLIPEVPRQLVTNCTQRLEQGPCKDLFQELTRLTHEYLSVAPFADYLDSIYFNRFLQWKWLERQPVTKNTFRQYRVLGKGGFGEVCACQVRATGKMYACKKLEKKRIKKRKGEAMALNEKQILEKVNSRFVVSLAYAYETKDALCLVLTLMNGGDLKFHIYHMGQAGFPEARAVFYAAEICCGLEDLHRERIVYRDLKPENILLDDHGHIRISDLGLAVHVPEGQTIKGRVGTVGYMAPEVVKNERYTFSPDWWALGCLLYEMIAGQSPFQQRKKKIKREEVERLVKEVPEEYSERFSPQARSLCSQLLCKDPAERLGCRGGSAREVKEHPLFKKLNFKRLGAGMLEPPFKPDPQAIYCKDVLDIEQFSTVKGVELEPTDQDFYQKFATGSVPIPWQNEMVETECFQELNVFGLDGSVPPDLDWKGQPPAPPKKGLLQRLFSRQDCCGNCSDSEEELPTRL
UniProt Q6PII5: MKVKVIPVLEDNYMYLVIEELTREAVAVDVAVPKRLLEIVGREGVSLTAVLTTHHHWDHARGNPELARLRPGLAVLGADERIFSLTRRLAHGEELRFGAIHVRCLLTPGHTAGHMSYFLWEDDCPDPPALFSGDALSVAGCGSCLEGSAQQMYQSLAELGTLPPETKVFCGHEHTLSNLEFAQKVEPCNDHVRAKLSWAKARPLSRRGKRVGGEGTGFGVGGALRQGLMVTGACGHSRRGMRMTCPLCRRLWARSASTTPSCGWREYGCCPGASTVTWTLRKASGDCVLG
UniProt P55084: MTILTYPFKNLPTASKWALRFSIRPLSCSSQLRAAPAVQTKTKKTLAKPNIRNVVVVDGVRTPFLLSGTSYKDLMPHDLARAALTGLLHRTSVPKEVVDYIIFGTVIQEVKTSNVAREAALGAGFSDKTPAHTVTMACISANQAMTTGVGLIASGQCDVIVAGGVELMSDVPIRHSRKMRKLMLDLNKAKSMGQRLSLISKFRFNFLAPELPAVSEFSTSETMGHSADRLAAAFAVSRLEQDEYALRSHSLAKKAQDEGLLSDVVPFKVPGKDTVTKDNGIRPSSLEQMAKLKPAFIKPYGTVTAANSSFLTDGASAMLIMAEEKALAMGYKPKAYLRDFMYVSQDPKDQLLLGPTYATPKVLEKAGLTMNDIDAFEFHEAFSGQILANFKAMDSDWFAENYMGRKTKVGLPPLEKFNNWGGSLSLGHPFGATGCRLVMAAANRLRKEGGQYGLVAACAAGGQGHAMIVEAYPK
UniProt P53701: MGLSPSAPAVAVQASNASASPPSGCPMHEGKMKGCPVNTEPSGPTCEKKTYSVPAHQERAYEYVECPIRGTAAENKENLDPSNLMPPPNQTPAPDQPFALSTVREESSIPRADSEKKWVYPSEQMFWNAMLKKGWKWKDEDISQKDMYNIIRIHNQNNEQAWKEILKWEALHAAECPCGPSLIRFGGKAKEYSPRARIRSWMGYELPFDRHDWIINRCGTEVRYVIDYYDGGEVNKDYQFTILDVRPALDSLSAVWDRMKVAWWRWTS
UniProt Q9Y450, whole entry, looked up: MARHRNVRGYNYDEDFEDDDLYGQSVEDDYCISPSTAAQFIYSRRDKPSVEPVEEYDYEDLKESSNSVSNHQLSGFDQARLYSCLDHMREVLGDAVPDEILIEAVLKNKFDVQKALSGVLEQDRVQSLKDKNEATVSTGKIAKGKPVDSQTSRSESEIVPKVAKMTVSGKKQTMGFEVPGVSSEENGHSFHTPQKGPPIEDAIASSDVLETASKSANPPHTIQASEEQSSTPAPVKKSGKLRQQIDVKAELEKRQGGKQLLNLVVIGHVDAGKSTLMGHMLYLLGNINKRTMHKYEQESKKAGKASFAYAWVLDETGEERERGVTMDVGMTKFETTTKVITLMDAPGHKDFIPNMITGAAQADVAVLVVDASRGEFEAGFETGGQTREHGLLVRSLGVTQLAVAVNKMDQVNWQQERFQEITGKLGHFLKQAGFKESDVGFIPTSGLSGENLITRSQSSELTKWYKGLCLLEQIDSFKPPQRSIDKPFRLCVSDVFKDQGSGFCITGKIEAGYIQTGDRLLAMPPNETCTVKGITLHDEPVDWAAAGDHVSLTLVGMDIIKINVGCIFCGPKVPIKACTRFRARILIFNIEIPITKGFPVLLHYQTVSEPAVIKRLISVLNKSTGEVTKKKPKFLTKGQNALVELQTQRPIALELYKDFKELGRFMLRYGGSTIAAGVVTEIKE
UniProt P78347: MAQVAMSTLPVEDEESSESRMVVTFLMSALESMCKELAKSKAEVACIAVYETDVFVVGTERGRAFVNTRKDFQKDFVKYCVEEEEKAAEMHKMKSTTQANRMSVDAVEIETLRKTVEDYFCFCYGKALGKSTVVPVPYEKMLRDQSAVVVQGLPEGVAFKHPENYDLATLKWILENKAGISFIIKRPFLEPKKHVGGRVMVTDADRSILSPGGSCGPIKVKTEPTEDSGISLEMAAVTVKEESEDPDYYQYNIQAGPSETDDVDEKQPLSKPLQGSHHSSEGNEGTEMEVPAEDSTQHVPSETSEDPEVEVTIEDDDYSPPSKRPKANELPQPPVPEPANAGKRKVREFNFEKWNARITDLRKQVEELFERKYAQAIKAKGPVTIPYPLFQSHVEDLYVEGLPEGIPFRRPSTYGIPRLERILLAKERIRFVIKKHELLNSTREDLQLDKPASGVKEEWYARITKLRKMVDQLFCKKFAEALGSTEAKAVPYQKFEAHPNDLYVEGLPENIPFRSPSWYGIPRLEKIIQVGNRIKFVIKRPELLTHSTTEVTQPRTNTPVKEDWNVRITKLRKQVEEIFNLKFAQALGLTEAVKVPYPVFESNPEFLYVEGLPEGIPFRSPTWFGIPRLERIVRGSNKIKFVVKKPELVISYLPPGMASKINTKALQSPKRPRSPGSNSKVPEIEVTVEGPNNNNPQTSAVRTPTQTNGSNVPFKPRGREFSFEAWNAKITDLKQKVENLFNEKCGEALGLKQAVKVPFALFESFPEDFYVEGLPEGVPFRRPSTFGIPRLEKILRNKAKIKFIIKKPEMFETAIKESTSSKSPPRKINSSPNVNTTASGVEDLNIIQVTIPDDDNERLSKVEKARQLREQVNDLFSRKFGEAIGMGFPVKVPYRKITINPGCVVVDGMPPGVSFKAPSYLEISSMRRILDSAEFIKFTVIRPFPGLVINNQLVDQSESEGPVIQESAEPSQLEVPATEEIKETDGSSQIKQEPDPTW
UniProt P13807: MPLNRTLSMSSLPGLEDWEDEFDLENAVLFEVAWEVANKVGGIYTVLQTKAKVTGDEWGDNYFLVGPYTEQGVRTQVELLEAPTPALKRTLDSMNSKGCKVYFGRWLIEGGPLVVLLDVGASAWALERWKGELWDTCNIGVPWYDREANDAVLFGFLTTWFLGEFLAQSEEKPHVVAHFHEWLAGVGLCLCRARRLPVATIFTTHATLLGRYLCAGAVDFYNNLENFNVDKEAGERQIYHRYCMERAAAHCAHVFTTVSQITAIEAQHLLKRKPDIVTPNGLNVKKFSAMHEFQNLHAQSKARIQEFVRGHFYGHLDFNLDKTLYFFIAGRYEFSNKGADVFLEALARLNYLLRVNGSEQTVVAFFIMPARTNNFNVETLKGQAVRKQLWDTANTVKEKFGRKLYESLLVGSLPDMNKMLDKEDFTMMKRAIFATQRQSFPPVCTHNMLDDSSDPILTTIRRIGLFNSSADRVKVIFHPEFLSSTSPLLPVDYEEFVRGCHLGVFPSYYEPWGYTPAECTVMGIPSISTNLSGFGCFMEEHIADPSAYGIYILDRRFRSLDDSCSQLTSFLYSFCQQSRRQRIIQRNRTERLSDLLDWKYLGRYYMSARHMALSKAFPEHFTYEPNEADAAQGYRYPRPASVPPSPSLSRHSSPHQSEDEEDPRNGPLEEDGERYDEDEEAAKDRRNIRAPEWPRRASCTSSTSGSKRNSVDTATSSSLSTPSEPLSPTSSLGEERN
UniProt Q68CZ6: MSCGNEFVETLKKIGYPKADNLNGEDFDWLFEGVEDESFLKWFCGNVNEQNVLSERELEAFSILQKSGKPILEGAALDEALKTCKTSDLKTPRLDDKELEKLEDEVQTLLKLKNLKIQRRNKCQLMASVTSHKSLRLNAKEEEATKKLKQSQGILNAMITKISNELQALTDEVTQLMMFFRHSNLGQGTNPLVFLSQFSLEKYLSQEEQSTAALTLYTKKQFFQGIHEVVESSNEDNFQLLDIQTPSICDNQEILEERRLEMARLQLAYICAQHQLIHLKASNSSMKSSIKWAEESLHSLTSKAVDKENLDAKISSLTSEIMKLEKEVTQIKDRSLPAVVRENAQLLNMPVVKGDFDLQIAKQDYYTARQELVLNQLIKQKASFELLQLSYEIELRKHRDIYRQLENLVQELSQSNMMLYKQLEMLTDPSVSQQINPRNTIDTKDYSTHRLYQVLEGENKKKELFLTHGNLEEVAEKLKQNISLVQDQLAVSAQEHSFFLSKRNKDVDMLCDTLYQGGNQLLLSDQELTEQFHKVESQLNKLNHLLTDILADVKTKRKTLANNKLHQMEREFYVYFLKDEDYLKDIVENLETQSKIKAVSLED
UniProt P25098: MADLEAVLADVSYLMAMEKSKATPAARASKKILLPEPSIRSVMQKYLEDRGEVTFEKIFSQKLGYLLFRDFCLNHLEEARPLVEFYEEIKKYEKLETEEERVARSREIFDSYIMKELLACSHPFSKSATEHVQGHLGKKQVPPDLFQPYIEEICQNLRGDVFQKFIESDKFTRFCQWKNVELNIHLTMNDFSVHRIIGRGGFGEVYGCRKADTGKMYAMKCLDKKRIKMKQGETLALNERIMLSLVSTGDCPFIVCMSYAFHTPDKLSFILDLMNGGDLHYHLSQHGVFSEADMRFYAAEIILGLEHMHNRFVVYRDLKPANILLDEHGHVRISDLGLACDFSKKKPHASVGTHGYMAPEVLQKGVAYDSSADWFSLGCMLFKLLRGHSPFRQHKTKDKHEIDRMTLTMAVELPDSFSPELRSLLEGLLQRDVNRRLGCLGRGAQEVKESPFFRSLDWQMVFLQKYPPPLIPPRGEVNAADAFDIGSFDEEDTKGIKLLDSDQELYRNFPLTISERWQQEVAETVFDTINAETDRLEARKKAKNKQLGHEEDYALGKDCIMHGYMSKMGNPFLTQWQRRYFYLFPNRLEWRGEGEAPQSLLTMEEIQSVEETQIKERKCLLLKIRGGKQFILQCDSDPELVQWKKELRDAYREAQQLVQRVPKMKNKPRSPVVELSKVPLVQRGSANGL
UniProt Q8TF76: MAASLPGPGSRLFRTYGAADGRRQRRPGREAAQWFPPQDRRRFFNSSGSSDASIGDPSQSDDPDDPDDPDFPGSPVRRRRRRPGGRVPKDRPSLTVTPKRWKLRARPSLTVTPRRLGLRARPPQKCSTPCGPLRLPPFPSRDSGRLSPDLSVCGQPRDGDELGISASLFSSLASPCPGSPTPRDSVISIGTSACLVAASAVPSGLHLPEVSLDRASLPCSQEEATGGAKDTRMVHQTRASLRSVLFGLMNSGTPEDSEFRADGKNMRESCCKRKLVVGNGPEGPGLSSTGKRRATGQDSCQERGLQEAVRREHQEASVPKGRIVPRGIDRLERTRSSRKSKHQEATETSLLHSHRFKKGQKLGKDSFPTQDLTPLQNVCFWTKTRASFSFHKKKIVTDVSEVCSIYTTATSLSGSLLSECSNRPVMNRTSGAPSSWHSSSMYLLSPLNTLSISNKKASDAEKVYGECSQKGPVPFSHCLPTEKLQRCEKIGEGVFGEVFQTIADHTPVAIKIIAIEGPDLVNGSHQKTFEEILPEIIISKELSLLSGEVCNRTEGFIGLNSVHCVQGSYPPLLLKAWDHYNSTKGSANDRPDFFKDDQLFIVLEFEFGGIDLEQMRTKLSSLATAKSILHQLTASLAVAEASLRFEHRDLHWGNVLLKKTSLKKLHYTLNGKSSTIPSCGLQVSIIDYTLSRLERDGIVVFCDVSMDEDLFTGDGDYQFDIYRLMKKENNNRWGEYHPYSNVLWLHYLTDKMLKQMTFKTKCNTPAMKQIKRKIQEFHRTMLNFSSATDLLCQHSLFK

Target	probe-labelled cysteine peptide fold change
GTF2H4_Q92759_41_LYGHPATCLAVFR (UniProt Q92759)	-0.3
GRK6_P43250_57_DYHSLCER (UniProt P43250)	-0.185
HAGHL_Q6PII5_170_VFCGHEHTLSNLEFAQK (UniProt Q6PII5)	-0.0319
HAUS7_Q99871_119_LGHELMLCAPDDQELLK (UniProt Q99871)	0.186
GSPT1_P15170_453_QDQVCIAR (UniProt P15170)	-0.0979
HAUS6_Q7Z4H7_185_QDCVTQK (UniProt Q7Z4H7)	0.0481
HADHB_P55084_435_FNNWGGSLSLGHPFGATGCR (UniProt P55084)	0.111
HCCS_P53701_178_WEALHAAECPCGPSLIR (UniProt P53701)	0.092
GTF3C1_Q12789_1704_LRPAAAPLEELTMGTSCLPDTFTK (UniProt Q12789)	-0.2
GSR_P00390_377_GIYAVGDVCGK (UniProt P00390)	0.0739
GSR_P00390_278_SFDSMISTNCTEELENAGVEVLK (UniProt P00390)	-0.123
GRN_P28799_335_GTCEQGPHQVPWMEK (UniProt P28799)	-0.31
HBS1L_Q9Y450_491_LCVSDVFK (UniProt Q9Y450)	-0.00828
GTF3C3_Q9Y5Q9_172_GEREEAILMCMEIIR (UniProt Q9Y5Q9)	0.044
GTF2I_P78347_745_CGEALGLK (UniProt P78347)	0.0905
GPX1_P07203_78_GLVVLGFPCNQFGHQENAK (UniProt P07203)	0.15
GYS1_P13807_444_QSFPPVCTHNMLDDSSDPILTTIRR (UniProt P13807)	-0.0835
HAUS3_Q68CZ6_271_LQLAYICAQHQLIHLK (UniProt Q68CZ6)	-0.132
GSTCD_Q8NEC7_335_CGIQFLHLPK (UniProt Q8NEC7)	-0.0747
GTPBP10_A4D1E9_167_SSLLSCVSHAK (UniProt A4D1E9)	-0.0953
GSPT1_P15170_327_LESGSICK (UniProt P15170)	0.0394
GRK2_P25098_72_DFCLNHLEEARPLVEFYEEIK (UniProt P25098)	-0.0383
HASPIN_Q8TF76_219_ASLPCSQEEATGGAK (UniProt Q8TF76)	-0.236

same assay, conditions: 50 µM; THP-1; incubation time: 4 h

Target	probe-labelled cysteine peptide fold change
GSR_P00390_134_KVMWNTAVHSEFMHDHADYGFPSCEGK (UniProt P00390)	-0.551
H6PD_O95479_95_DMAPSHCAEHK (UniProt O95479)	-0.0215
HACL1_Q9UJ83_392_DCFVVSEGANTMDIGR (UniProt Q9UJ83)	0.136
GRN_P28799_558_HCCPAGFR (UniProt P28799)	-0.27
GTF3C2_Q8WUA4_469_AHFVYGIACDNGCIWDLK (UniProt Q8WUA4)	0.104
GRN_P28799_164+165+171_VHCCPHGAFCDLVHTR (UniProt P28799)	-0.702
HAT1_O14929_168_ADMTCR (UniProt O14929)	0.0342
GSE1_Q14687_1151_QVLQTQCR (UniProt Q14687)	0.108
GRN_P28799_165_VHCCPHGAFCDLVHTR (UniProt P28799)	-0.0982
GSN_P06396_215_ATEVPVSWESFNNGDCFILDLGNNIHQWCGSNSNRYER (UniProt P06396)	-0.304
GRHPR_Q9UBQ7_57_GVAGAHGLLCLLSDHVDK (UniProt Q9UBQ7)	0.157
HAUS6_Q7Z4H7_443_QHNQENGCR (UniProt Q7Z4H7)	-0.152
GTF3C1_Q12789_1188_VGSELCAGWEEQFEVDREPSLDR (UniProt Q12789)	-0.678
GSN_P06396_331_SEDCFILDHGKDGK (UniProt P06396)	-0.0746
GTSE1_Q9NYZ3_436_DSCLNSK (UniProt Q9NYZ3)	-0.12
GSK3A_P49840_398_LSPLEACAHSFFDELR (UniProt P49840)	-0.0385
GTF2H4_Q92759_41_LYGHPATCLAVFR (UniProt Q92759)	0.253
GRK6_P43250_57_DYHSLCER (UniProt P43250)	-0.029
HAGHL_Q6PII5_170_VFCGHEHTLSNLEFAQK (UniProt Q6PII5)	-0.114
HAUS7_Q99871_119_LGHELMLCAPDDQELLK (UniProt Q99871)	0.321

Target	probe-labelled cysteine peptide fold change
GSPT1_P15170_453_QDQVCIAR (UniProt P15170)	0.0274
HAUS6_Q7Z4H7_185_QDCVTQK (UniProt Q7Z4H7)	-0.0948
HADHB_P55084_435_FNNWGGSLSLGHPFGATGCR (UniProt P55084)	-0.101
HCCS_P53701_178_WEALHAAECPCGPSLIR (UniProt P53701)	-0.0387
GTF3C1_Q12789_1704_LRPAAAPLEELTMGTSCLPDTFTK (UniProt Q12789)	-0.0592
GSR_P00390_377_GIYAVGDVCGK (UniProt P00390)	0.0996
GSR_P00390_278_SFDSMISTNCTEELENAGVEVLK (UniProt P00390)	0.0349
GRN_P28799_335_GTCEQGPHQVPWMEK (UniProt P28799)	-0.373
HBS1L_Q9Y450_491_LCVSDVFK (UniProt Q9Y450)	0.0622
GTF3C3_Q9Y5Q9_172_GEREEAILMCMEIIR (UniProt Q9Y5Q9)	0.268
GTF2I_P78347_745_CGEALGLK (UniProt P78347)	-0.092
GPX1_P07203_78_GLVVLGFPCNQFGHQENAK (UniProt P07203)	0.0456
GYS1_P13807_444_QSFPPVCTHNMLDDSSDPILTTIRR (UniProt P13807)	-0.118
HAUS3_Q68CZ6_271_LQLAYICAQHQLIHLK (UniProt Q68CZ6)	0.366
GSTCD_Q8NEC7_335_CGIQFLHLPK (UniProt Q8NEC7)	-0.151
GTPBP10_A4D1E9_167_SSLLSCVSHAK (UniProt A4D1E9)	0.038
GSPT1_P15170_327_LESGSICK (UniProt P15170)	-0.0486
GRK2_P25098_72_DFCLNHLEEARPLVEFYEEIK (UniProt P25098)	0.0292
HASPIN_Q8TF76_219_ASLPCSQEEATGGAK (UniProt Q8TF76)	-0.32

Reference: the supplement of paper PMC12067093, “Discovery and optimisation of a covalent ligand for TRIM25 and its application to targeted protein ubiquitination” (Chemical Science, 2025)
